# Data from paper doi:10.1101/2025.04.14.648677 (bioRxiv, 2025).
# Results are given in words; binding and its absence hold for the method and conditions named. Some results given as binding are weak or reduced against the parent protein; the word gives no strength.
# T1: AGR2 co-expressed with IRE1β_LD (cryo-EM complex, UK3289) (not stated (human or mouse AGR2 made)), O95994
# T1 chain: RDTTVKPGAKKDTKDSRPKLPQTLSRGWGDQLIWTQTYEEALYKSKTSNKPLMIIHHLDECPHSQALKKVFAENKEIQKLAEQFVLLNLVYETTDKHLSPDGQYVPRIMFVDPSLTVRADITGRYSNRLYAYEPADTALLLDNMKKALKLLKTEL
# T2: human AGR2 (residues 21-175), AUC (human), O95994
# T2 chain: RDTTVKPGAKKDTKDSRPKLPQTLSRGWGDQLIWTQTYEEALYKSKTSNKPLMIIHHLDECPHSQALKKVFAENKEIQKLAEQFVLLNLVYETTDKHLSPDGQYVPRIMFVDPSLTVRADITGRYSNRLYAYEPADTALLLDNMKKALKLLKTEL
# What was measured:
# [1] = molecular target: AGR2 (42-171) Q56W (not stated (human or mouse AGR2 made)) (UniProt O95994); assay: NMR spectroscopy
# [2] = molecular target: T1, AGR2 co-expressed with IRE1β_LD …; assay: cryo-EM structure; settings: remark: other sources report otherwise
# [3] = molecular target: T2, human AGR2 (residues 21-175), AUC …; assay: AUC; settings: remark: other sources report otherwise
molecule,measurement,setting,value
AGR2 (42-171) Q56W (from UniProt O95994 41-171) (domain or fragment),binding,[1],no binding
"AGR2 co-expressed with IRE1β_LD (cryo-EM complex, UK3289), O95994 21-175 (protein) RDTTVKPGAKKDTKDSRPKLPQTLSRGWGDQLIWTQTYEEALYKSKTSNKPLMIIHHLDECPHSQALKKVFAENKEIQKLAEQFVLLNLVYETTDKHLSPDGQYVPRIMFVDPSLTVRADITGRYSNRLYAYEPADTALLLDNMKKALKLLKTEL",binding,[2],binds
"human AGR2 (residues 21-175), AUC, O95994 21-175 (protein) RDTTVKPGAKKDTKDSRPKLPQTLSRGWGDQLIWTQTYEEALYKSKTSNKPLMIIHHLDECPHSQALKKVFAENKEIQKLAEQFVLLNLVYETTDKHLSPDGQYVPRIMFVDPSLTVRADITGRYSNRLYAYEPADTALLLDNMKKALKLLKTEL",binding,[3],binds
